According to doi:10.1101/2020.11.05.369959:
Results are given in words; binding and its absence hold for the method and conditions named. In cells and extracts the contact can be indirect. Some entries that bind do so weakly or less than the wild type. Values belong to the binder of their own block, whether it stands above or below them.

Protein sequences, listed by entry. Tags and fused reporters are not part of them.
UniProt Q9C0K0: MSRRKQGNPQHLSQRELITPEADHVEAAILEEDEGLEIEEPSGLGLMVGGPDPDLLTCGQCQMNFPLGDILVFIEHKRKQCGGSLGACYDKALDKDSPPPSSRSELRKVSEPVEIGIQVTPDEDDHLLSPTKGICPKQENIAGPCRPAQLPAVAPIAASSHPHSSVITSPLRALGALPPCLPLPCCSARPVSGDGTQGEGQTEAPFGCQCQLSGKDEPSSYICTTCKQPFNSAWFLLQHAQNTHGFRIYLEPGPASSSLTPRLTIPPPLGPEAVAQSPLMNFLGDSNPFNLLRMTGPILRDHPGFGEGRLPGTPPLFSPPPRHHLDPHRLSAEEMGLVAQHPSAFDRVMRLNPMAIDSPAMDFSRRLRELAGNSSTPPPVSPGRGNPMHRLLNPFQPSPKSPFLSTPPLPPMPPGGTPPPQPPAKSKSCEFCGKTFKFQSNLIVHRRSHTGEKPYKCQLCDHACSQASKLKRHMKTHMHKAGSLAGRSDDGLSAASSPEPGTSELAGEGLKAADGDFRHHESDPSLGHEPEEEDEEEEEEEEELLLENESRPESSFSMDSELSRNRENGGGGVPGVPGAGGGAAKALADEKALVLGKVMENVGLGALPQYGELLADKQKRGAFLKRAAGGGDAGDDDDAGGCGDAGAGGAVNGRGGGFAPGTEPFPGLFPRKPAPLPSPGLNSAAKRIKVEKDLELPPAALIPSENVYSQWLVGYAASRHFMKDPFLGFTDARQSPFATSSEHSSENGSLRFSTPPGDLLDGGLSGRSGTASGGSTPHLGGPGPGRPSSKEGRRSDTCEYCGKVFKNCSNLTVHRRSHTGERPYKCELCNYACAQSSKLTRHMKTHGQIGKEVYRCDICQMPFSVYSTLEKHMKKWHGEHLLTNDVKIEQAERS

Molecular target: Flag-BCL11b (B-cell lymphoma/leukemia 11B) (UniProt Q9C0K0)
Assay: co-IP

binding: binds
B1: UPF1 (protein, UniProt Q92900 1-1129)
chain: MSVEAYGPSSQTLTFLDTEEAELLGADTQGSEFEFTDFTLPSQTQTPPGGPGGPGGGGAGGPGGAGAGAAAGQLDAQVGPEGILQNGAVDDSVAKTSQLLAELNFEEDEEDTYYTKDLPIHACSYCGIHDPACVVYCNTSKKWFCNGRGNTSGSHIVNHLVRAKCKEVTLHKDGPLGETVLECYNCGCRNVFLLGFIPAKADSVVVLLCRQPCASQSSLKDINWDSSQWQPLIQDRCFLSWLVKIPSEQEQLRARQITAQQINKLEELWKENPSATLEDLEKPGVDEEPQHVLLRYEDAYQYQNIFGPLVKLEADYDKKLKESQTQDNITVRWDLGLNKKRIAYFTLPKTDSGNEDLVIIWLRDMRLMQGDEICLRYKGDLAPLWKGIGHVIKVPDNYGDEIAIELRSSVGAPVEVTHNFQVDFVWKSTSFDRMQSALKTFAVDETSVSGYIYHKLLGHEVEDVIIKCQLPKRFTAQGLPDLNHSQVYAVKTVLQRPLSLIQGPPGTGKTVTSATIVYHLARQGNGPVLVCAPSNIAVDQLTEKIHQTGLKVVRLCAKSREAIDSPVSFLALHNQIRNMDSMPELQKLQQLKDETGELSSADEKRYRALKRTAERELLMNADVICCTCVGAGDPRLAKMQFRSILIDESTQATEPECMVPVVLGAKQLILVGDHCQLGPVVMCKKAAKAGLSQSLFERLVVLGIRPIRLQVQYRMHPALSAFPSNIFYEGSLQNGVTAADRVKKGFDFQWPQPDKPMFFYVTQGQEEIASSGTSYLNRTEAANVEKITTKLLKAGAKPDQIGIITPYEGQRSYLVQYMQFSGSLHTKLYQEVEIASVDAFQGREKDFIILSCVRANEHQGIGFLNDPRRLNVALTRARYGVIIVGNPKALSKQPLWNHLLNYYKEQKVLVEGPLNNLRESLMQFSKPRKLVNTINPGARFMTTAMYDAREAIIPGSVYDRSSQGRPSSMYFQTHDQIGMISAGPSHVAAMNIPIPFNLVMPPMPPPGYFGQANGPAAGRGTPKGKTGRGGRQKNRFGLPGPSQTNLPNSQASQDVASQPFSQGALTQGYISMSQPSQMSQPGLSQPELSQDSYLGDEFKSQIDVALSQDSTYQGERAYQHGGVTGLSQY

binding: binds
B2: Drosha (protein, UniProt Q9NRR4 1-1374)
chain: MMQGNTCHRMSFHPGRGCPRGRGGHGARPSAPSFRPQNLRLLHPQQPPVQYQYEPPSAPSTTFSNSPAPNFLPPRPDFVPFPPPMPPSAQGPLPPCPIRPPFPNHQMRHPFPVPPCFPPMPPPMPCPNNPPVPGAPPGQGTFPFMMPPPSMPHPPPPPVMPQQVNYQYPPGYSHHNFPPPSFNSFQNNPSSFLPSANNSSSPHFRHLPPYPLPKAPSERRSPERLKHYDDHRHRDHSHGRGERHRSLDRRERGRSPDRRRQDSRYRSDYDRGRTPSRHRSYERSRERERERHRHRDNRRSPSLERSYKKEYKRSGRSYGLSVVPEPAGCTPELPGEIIKNTDSWAPPLEIVNHRSPSREKKRARWEEEKDRWSDNQSSGKDKNYTSIKEKEPEETMPDKNEEEEEELLKPVWIRCTHSENYYSSDPMDQVGDSTVVGTSRLRDLYDKFEEELGSRQEKAKAARPPWEPPKTKLDEDLESSSESECESDEDSTCSSSSDSEVFDVIAEIKRKKAHPDRLHDELWYNDPGQMNDGPLCKCSAKARRTGIRHSIYPGEEAIKPCRPMTNNAGRLFHYRITVSPPTNFLTDRPTVIEYDDHEYIFEGFSMFAHAPLTNIPLCKVIRFNIDYTIHFIEEMMPENFCVKGLELFSLFLFRDILELYDWNLKGPLFEDSPPCCPRFHFMPRFVRFLPDGGKEVLSMHQILLYLLRCSKALVPEEEIANMLQWEELEWQKYAEECKGMIVTNPGTKPSSVRIDQLDREQFNPDVITFPIIVHFGIRPAQLSYAGDPQYQKLWKSYVKLRHLLANSPKVKQTDKQKLAQREEALQKIRQKNTMRREVTVELSSQGFWKTGIRSDVCQHAMMLPVLTHHIRYHQCLMHLDKLIGYTFQDRCLLQLAMTHPSHHLNFGMNPDHARNSLSNCGIRQPKYGDRKVHHMHMRKKGINTLINIMSRLGQDDPTPSRINHNERLEFLGDAVVEFLTSVHLYYLFPSLEEGGLATYRTAIVQNQHLAMLAKKLELDRFMLYAHGPDLCRESDLRHAMANCFEALIGAVYLEGSLEEAKQLFGRLLFNDPDLREVWLNYPLHPLQLQEPNTDRQLIETSPVLQKLTEFEEAIGVIFTHVRLLARAFTLRTVGFNHLTLGHNQRMEFLGDSIMQLVATEYLFIHFPDHHEGHLTLLRSSLVNNRTQAKVAEELGMQEYAITNDKTKRPVALRTKTLADLLESFIAALYIDKDLEYVHTFMNVCFFPRLKEFILNQDWNDPKSQLQQCCLTLRTEGKEPDIPLYKTLQTVGPSHARTYTVAVYFKGERIGCGKGPSIQQAEMGAAMDALEKYNFPQMAHQKRFIERKYRQELKEMRWEREHQEREPDETEDIKK
